{
  "source": "patent US20090238808A1",
  "about": "“Process for the identification of novel enzyme interacting compounds” (priority 2005, published 2009)",
  "tested_on": "proteins captured on kinobeads from K562 cell lysate",
  "details": "1 μM drug in K562 lysate",
  "note": "At least one compound was matched to its structure with a doubt left.",
  "data": [
    {"compound": "COc1cc(Nc2c(C#N)cnc3cc(OCCCN4CCN(C)CC4)c(OC)cc23)c(Cl)cc1Cl", "note": "[bosutinib]", "values": [
      {"measurement": "number of proteins with more than 50% binding reduction on kinobeads", "result": 53}
    ]}
  ]
}
